Laboratory results taken from the supplement of paper PMC10849652.
The other results are listed elsewhere or left out.

By UniProt entry, the sequences of proteins in these tests, tags left out. Where a name states a change or a piece, a line headed by the entry shows the natural chain unless it says otherwise.
UniProt Q8IWU2: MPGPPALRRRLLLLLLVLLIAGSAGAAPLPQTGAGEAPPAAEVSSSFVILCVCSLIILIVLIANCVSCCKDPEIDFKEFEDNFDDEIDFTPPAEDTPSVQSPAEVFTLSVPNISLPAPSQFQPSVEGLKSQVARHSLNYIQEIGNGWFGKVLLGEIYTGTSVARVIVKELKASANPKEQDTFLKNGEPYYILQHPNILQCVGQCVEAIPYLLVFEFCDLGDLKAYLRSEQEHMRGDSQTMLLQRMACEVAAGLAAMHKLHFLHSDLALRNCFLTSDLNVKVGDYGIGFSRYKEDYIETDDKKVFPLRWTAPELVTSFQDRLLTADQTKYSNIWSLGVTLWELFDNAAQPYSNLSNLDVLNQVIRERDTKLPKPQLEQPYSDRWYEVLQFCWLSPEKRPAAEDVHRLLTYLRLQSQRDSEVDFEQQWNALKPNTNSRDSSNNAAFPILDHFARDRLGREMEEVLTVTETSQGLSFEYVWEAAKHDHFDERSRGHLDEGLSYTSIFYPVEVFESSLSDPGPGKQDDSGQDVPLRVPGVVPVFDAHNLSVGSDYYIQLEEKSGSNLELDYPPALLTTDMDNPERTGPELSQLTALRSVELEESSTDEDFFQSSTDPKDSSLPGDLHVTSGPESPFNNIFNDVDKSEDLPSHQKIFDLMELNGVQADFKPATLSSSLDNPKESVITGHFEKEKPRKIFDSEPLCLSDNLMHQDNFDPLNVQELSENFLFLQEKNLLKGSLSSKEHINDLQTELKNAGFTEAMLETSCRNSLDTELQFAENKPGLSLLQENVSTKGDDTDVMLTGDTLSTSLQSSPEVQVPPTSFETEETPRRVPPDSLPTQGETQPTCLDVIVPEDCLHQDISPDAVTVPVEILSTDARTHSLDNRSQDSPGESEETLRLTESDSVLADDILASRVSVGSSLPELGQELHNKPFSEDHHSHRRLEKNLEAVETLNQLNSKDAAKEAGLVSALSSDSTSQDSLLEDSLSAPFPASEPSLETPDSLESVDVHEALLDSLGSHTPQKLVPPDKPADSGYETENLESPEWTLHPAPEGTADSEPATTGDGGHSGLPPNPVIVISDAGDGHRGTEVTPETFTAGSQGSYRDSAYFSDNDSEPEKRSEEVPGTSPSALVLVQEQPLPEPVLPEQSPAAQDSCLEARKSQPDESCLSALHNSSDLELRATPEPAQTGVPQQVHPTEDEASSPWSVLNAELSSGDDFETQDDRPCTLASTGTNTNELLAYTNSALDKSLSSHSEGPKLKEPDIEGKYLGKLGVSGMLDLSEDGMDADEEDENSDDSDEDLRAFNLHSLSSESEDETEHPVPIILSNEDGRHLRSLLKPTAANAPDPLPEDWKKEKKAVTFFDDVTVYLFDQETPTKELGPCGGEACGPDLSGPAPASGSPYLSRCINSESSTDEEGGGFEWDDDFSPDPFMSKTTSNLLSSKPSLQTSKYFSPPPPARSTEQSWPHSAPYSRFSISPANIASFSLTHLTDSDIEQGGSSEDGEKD
UniProt P36776: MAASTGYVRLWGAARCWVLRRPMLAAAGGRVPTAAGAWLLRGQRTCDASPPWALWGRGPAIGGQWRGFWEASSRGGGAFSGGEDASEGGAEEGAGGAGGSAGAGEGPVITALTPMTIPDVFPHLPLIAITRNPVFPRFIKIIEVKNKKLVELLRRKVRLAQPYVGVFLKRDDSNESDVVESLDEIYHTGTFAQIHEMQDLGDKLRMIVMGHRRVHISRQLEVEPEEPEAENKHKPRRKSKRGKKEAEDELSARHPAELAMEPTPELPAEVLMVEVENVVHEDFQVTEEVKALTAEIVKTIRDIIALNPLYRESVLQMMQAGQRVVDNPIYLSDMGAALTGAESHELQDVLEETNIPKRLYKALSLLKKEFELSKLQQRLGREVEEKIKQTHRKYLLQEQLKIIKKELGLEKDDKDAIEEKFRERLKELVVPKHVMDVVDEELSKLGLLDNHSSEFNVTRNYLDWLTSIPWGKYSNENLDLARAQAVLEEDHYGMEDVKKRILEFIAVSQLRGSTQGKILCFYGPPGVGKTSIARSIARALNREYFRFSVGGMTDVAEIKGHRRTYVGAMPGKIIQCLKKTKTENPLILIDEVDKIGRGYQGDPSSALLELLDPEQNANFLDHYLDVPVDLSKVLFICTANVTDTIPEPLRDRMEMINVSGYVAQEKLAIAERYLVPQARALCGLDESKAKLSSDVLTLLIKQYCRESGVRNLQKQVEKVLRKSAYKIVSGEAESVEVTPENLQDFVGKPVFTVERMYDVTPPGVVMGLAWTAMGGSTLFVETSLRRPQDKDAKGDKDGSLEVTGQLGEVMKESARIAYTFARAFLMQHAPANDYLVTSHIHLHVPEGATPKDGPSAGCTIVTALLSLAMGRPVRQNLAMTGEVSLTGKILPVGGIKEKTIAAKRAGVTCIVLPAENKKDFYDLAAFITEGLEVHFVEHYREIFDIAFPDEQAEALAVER
UniProt Q8TCA0: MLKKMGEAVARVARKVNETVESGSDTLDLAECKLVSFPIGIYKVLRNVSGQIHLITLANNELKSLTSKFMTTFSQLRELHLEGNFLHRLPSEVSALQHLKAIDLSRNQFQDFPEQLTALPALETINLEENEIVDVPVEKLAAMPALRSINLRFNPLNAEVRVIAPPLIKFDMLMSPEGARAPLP
UniProt P48357: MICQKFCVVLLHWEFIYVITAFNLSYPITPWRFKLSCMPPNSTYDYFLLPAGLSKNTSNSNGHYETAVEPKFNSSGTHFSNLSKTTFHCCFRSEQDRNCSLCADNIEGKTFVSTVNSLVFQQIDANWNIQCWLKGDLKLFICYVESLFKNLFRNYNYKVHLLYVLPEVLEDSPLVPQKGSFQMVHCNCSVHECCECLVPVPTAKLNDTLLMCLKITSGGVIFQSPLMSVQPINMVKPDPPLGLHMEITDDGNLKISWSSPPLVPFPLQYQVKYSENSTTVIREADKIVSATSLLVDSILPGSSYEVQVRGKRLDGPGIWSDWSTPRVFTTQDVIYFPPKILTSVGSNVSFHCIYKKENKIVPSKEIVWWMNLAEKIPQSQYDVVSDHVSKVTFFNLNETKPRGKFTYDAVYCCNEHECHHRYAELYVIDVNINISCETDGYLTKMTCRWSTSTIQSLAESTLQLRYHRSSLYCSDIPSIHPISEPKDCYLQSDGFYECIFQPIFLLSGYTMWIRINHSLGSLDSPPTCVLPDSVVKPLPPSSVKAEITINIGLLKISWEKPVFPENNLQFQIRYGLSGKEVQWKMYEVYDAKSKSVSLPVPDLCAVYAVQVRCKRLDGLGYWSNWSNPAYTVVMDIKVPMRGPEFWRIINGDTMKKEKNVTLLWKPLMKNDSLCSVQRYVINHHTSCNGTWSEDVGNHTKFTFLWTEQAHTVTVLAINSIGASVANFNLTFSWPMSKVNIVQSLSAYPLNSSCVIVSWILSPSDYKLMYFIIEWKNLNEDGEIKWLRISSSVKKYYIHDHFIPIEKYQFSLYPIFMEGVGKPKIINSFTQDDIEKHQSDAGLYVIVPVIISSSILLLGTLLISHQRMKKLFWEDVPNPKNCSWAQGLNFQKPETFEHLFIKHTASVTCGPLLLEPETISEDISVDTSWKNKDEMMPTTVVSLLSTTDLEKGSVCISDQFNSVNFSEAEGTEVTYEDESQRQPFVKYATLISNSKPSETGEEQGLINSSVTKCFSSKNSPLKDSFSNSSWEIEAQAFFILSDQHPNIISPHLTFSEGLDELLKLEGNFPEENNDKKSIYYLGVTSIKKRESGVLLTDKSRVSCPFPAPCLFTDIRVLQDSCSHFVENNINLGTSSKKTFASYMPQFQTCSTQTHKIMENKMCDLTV
UniProt Q6ZN17: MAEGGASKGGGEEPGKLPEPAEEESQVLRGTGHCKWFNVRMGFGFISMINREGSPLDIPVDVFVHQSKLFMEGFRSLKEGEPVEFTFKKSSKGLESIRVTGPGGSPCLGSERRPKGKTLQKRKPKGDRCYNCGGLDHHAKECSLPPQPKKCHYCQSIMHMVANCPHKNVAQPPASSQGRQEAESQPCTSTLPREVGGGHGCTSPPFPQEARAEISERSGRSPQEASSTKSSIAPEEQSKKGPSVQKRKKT
UniProt O00214: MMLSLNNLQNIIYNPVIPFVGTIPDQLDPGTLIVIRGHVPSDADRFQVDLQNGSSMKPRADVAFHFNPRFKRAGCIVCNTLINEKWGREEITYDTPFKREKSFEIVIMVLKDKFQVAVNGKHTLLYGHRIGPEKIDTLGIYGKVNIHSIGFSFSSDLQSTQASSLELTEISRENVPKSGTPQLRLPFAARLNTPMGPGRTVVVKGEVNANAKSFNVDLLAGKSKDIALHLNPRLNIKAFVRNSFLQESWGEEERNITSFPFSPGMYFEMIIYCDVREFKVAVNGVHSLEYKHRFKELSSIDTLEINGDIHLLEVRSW
UniProt Q96BZ8: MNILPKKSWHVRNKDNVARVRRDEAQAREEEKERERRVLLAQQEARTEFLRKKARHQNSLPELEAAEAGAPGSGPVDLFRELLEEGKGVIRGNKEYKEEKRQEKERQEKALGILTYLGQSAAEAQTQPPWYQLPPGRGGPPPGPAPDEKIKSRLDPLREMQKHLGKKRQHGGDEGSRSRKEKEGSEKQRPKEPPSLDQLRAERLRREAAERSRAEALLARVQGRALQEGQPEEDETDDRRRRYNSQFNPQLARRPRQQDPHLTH
UniProt P20700: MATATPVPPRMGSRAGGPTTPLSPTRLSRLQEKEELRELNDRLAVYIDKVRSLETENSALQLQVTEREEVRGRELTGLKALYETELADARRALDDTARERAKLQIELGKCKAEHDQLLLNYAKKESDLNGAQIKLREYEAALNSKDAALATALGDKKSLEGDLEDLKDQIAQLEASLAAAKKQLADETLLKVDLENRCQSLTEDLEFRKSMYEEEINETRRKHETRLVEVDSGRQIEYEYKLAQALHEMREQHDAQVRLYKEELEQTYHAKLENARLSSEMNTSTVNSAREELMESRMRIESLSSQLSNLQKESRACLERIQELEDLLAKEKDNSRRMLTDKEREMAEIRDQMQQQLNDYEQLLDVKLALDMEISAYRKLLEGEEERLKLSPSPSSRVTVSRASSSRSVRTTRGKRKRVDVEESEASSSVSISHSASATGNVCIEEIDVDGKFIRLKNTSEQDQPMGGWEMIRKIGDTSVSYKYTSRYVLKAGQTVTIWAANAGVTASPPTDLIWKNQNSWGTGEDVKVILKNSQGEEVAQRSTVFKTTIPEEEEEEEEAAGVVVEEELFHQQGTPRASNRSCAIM
UniProt Q15031: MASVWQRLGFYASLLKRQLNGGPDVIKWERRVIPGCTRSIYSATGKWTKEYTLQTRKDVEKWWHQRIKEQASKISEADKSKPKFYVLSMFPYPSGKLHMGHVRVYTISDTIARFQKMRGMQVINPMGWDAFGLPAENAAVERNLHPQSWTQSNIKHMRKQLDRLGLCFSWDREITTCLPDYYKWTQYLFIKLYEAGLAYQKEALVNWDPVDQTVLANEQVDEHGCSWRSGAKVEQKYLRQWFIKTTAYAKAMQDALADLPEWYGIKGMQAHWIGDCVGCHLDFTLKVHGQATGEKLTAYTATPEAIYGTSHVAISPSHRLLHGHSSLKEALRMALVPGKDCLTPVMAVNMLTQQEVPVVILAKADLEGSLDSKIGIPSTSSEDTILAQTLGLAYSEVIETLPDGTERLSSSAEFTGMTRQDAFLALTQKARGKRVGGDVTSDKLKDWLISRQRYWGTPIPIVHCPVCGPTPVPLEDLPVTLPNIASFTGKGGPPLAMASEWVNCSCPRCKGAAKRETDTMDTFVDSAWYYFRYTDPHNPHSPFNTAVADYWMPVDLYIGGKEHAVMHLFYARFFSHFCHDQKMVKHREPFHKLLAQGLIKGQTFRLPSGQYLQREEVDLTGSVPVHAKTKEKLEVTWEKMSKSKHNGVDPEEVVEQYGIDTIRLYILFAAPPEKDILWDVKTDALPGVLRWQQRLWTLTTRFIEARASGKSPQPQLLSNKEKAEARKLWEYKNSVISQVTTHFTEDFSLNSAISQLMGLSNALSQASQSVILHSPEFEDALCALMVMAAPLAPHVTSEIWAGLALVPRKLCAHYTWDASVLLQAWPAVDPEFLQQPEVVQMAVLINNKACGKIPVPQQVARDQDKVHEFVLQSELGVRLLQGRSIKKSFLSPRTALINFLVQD
UniProt Q86U70: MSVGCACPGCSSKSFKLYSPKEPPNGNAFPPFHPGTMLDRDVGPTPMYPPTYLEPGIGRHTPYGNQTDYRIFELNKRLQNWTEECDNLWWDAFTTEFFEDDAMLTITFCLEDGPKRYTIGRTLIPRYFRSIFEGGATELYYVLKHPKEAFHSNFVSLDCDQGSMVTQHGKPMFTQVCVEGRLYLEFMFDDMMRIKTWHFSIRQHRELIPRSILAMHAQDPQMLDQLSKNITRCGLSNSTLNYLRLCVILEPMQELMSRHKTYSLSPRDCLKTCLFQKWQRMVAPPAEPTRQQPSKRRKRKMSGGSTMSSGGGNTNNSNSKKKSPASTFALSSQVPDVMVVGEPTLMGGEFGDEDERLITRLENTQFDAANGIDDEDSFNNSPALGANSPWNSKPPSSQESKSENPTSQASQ

Experiments:
Assay in all cases: log2 fold change, soluble protein after heating vs DMSO (PISA); higher = thermal stabilisation; K562 lysate, 10 uM; active = over 0.2 and 3.5 SD of the protein, either way, in both replicates (recomputed)
[1] = compound: C=CC(=O)N1CCC[C@@H](n2nc(-c3ccc(Oc4ccccc4)cc3)c3c(N)ncnc32)C1 [ibrutinib]
Procedure, shortened: (§1)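 The values are log-two fold changes in thermal stability compared with solvent controls and come from duplicates. They were obtained by TMTpro 16plex LC-MS/MS, with channel sums equalised, on the supernatant after 21,000xg for 90 min. That supernatant came from crude K562 extract at 1 mg/mL protein treated with 10 μM compound for 30 min, heated for 3 min across 48°C-58°C, pooled and brought to 0.5% NP-40 at 4°C.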

[2] = compound: CC(=O)c1cnc2ccc(-c3cc(Cl)c(O)c(Cl)c3)nc2c1N[C@H]1CC[C@H](CN(C)C)CC1
Procedure, shortened: as §1

[3] = compound: CC(C)(C)Cn1c(N)nc2ccc(-c3[nH]c(C(C)(C)C)nc3-c3ccc(F)cc3)nc21 [ralimetinib]
Procedure, shortened: as §1

[4] = compound: CC(C)(O)CC(=O)NCCn1ccc2ncnc(Nc3ccc(Oc4cccc(C(F)(F)F)c4)c(Cl)c3)c21
Procedure, shortened: as §1

[5] = compound: CC(C)C1=C2N=C(C=C(N2N=C1)NCC3=CC=CC=C3)NCCCCCCN
Procedure, shortened: as §1

[6] = compound: CC1=C(C(CC(=O)N1)C2=CC=C(C=C2)C(F)(F)F)C(=O)NC3=C(C=C4C(=C3)C=NN4)F
Procedure, shortened: as §1

[7] = compound: CC1=C(C2=C(C=C1)C(=O)C3=CC=CC=C3N2CCCN)C
Procedure, shortened: as §1

[8] = compound: CC1=C(C=C(C=C1)NC(=O)C2=CC(=CC=C2)C(C)(C)C#N)NC3=CC4=C(C=C3)N=CN(C4=O)C
Procedure, shortened: as §1

[9] = compound: CC1=C(C=C(C=C1)NC(=O)C2=CC(=CC=C2)N(C)C)NC(=O)C3=CC=C(C=C3)O
Procedure, shortened: as §1

[10] = compound: CC1=CC=C(C=C1)SC2=C3C=C(SC3=CN=C2)C(=O)N
Procedure, shortened: as §1

[11] = compound: CCCS(=O)(=O)Nc1ccc(F)c(C(=O)c2c[nH]c3ncc(-c4ccc(Cl)cc4)cc23)c1F [vemurafenib]
Procedure, shortened: as §1

[12] = compound: CCCS(=O)(=O)Nc1ccc(F)c(C(=O)c2c[nH]c3ncc(Cl)cc23)c1F
Procedure, shortened: as §1

[13] = compound: CCN(CCCOc1ccc2c(Nc3cc(CC(=O)Nc4cccc(F)c4)[nH]n3)ncnc2c1)CCOP(=O)(O)O [barasertib]
Procedure, shortened: as §1

[14] = compound: CC[C@@H]1C(=O)N(C)c2cnc(Nc3ccc(C(=O)NC4CCN(C)CC4)cc3OC)nc2N1C1CCCC1
Procedure, shortened: as §1

[15] = compound: CC[C@@H]1C(=O)N(C)c2cnc(Nc3ccc(C(=O)N[C@H]4CC[C@H](N5CCN(CC6CC6)CC5)CC4)cc3OC)nc2N1C(C)C [volasertib]
Procedure, shortened: as §1

[16] = compound: CCn1c(C(=O)N(C2CC2)C2CC2)cc2c3c(ncn3C)c(Nc3cc(C)n(C)n3)nc21
Procedure, shortened: as §1

[17] = compound: CCn1cc(-c2ccnc3[nH]c(-c4cccc(CN(C)C)c4)cc23)c(-c2ccc(NC(=O)N(C)C)cc2)n1
Procedure, shortened: as §1

[18] = compound: CN1CCC(CNc2ccc3ncc(-c4cccc(OC(F)(F)F)c4)n3n2)CC1
Procedure, shortened: as §1

[19] = compound: CN1CCN(CCOc2cc(OC3CCOCC3)c3c(Nc4c(Cl)ccc5c4OCO5)ncnc3c2)CC1 [saracatinib]
Procedure, shortened: as §1

[20] = compound: CN1CCN(c2nc(C3=C(c4c[nH]c5ccccc45)C(=O)NC3=O)c3ccccc3n2)CC1 [sotrastaurin]
Procedure, shortened: as §1

Measured: log2 fold change

LMTK2 (UniProt Q8IWU2)
inactive: [1] -0.017 | [2] 0.051 | [3] 0.038 | [4] -0.057 | [5] -0.013 | [6] -0.025 | [7] -0.025 | [8] 0.127 | [9] 0.015 | [10] -0.034 | [11] 0.017 | [12] 0.071 | [13] -0.05 | [14] 0.018 | [15] -0.105 | [16] -0.063 | [17] -0.029 | [18] 0.063 | [19] 0.044 | [20] 0

LONP1 (UniProt P36776)
inactive: [1] -0.023 | [2] -0.038 | [3] 0.003 | [4] -0.003 | [5] 0.006 | [6] -0.013 | [7] -0.012 | [8] -0.031 | [9] -0.003 | [10] -0.015 | [11] -0.015 | [12] -0.009 | [13] -0.015 | [14] 0.016 | [15] -0.037 | [16] -0.007 | [17] -0.02 | [18] 0.03 | [19] -0.027 | [20] -0.016

LRRC20 (UniProt Q8TCA0)
inactive: [1] -0.016 | [2] -0.013 | [3] 0.007 | [4] 0.015 | [5] 0.024 | [6] -0.028 | [7] -0.046 | [8] 0.012 | [9] 0.028 | [10] 0.034 | [11] -0.029 | [12] 0.019 | [13] 0.084 | [14] 0.051 | [15] -0.018 | [16] 0.005 | [17] -0.015 | [18] -0.03 | [19] -0.033 | [20] -0.017

LDAH isoform 2 (UniProt Q9H6V9)
inactive: [1] 0.015 | [2] 0.021 | [3] 0.029 | [4] 0.097 | [5] -0.018 | [6] 0.006 | [7] 0.029 | [8] 0.007 | [9] 0 | [10] 0.014 | [11] 0.077 | [12] 0.125 | [13] 0.018 | [14] 0.003 | [15] -0.036 | [16] -0.004 | [17] -0.013 | [18] -0.018 | [19] 0.016 | [20] -0.01

LEPR (UniProt P48357)
inactive: [1] -0.005 | [2] 0.023 | [3] 0 | [4] -0.025 | [5] -0.012 | [6] 0.013 | [7] -0.035 | [8] -0.047 | [9] 0.051 | [10] 0.084 | [11] 0.027 | [12] -0.039 | [13] 0.015 | [14] 0.009 | [15] 0.014 | [16] 0.03 | [17] 0.004 | [18] 0.044 | [19] 0.058 | [20] 0.025

LIN28B (UniProt Q6ZN17)
inactive: [1] -0.003 | [2] 0.001 | [3] 0.007 | [4] -0.02 | [5] 0.007 | [6] -0.019 | [7] 0.009 | [8] -0.017 | [9] 0.01 | [10] 0.013 | [11] -0.013 | [12] -0.006 | [13] -0.017 | [14] 0.017 | [15] 0.004 | [16] -0.017 | [17] -0.041 | [18] 0.034 | [19] 0.025 | [20] 0.009

LGALS8 isoform 2 (UniProt O00214)
inactive: [1] 0.014 | [2] 0.003 | [3] 0.021 | [4] -0.064 | [5] 0.009 | [6] 0.01 | [7] -0.041 | [8] 0.035 | [9] -0.005 | [10] -0.011 | [11] -0.02 | [12] 0.036 | [13] 0.018 | [14] 0.038 | [15] -0.001 | [16] -0.038 | [17] 0.018 | [18] 0.017 | [19] -0.028 | [20] 0.005

LDHA isoform 3 (UniProt P00338)
inactive: [1] 0.025 | [2] -0.013 | [3] 0.006 | [4] 0.043 | [5] 0.01 | [6] -0.027 | [7] 0.009 | [8] 0.006 | [9] -0.032 | [10] -0.023 | [11] 0.001 | [12] 0.02 | [13] -0.023 | [14] 0.034 | [15] 0.026 | [16] -0.007 | [17] 0.022 | [18] 0.031 | [19] -0.019 | [20] -0.029

LENG1 (UniProt Q96BZ8)
inactive: [1] 0.03 | [2] 0.015 | [3] -0.13 | [4] -0.05 | [5] -0.111 | [6] -0.071 | [7] -0.005 | [8] 0.036 | [9] 0.075 | [10] -0.015 | [11] 0.025 | [12] -0.022 | [13] -0.038 | [14] 0.008 | [15] -0.012 | [16] 0.04 | [17] -0.055 | [18] 0.069 | [19] -0.041 | [20] -0.023

LRCH3 (UniProt Q96II8)
inactive: [1] -0.052 | [2] -0.016 | [3] -0.004 | [4] -0.017 | [5] 0.015 | [6] -0.015 | [7] -0.025 | [8] 0.047 | [9] 0.07 | [10] 0.034 | [11] -0.009 | [12] -0.01 | [13] 0.03 | [14] -0.051 | [15] -0.058 | [16] -0.022 | [17] 0.022 | [18] -0.031 | [19] 0.004 | [20] -0.047

LMNB1 (UniProt P20700)
inactive: [1] 0.031 | [2] -0.008 | [3] -0.016 | [4] 0.026 | [5] -0.006 | [6] 0.005 | [7] -0.019 | [8] 0.007 | [9] -0.038 | [10] -0.013 | [11] -0.009 | [12] 0.031 | [13] 0.02 | [14] 0.012 | [15] 0 | [16] 0.006 | [17] -0.027 | [18] 0.006 | [19] -0.011 | [20] -0.031

LPIN3 isoform 2 (UniProt Q9BQK8)
inactive: [1] -0.071 | [2] 0.026 | [3] 0.004 | [4] -0.02 | [5] -0.12 | [6] -0.057 | [7] -0.148 | [8] 0 | [9] 0.015 | [10] -0.034 | [11] 0.006 | [12] 0.006 | [13] -0.05 | [14] -0.036 | [15] 0.027 | [16] -0.079 | [17] -0.036 | [18] 0.017 | [19] -0.092 | [20] 0.013

LARS2 (UniProt Q15031)
inactive: [1] 0.009 | [2] 0.034 | [3] 0.026 | [4] 0.156 | [5] -0.027 | [6] 0.02 | [7] 0.063 | [8] -0.036 | [9] 0.046 | [10] 0.028 | [11] -0.015 | [12] 0.007 | [13] 0.077 | [14] -0.103 | [15] -0.081 | [16] 0.061 | [17] 0.024 | [18] -0.073 | [19] 0.029 | [20] 0.072

Quoted from the results shown (3 entries):
LENG1 (UniProt Q96BZ8)
inactive: [1] 0.03 | [2] 0.015 | [3] -0.13 | [4] -0.05 | [5] -0.111 | [6] -0.071 | [7] -0.005 | [8] 0.036 | [9] 0.075 | [10] -0.015 | [11] 0.025 | [12] -0.022 | [13] -0.038 | [14] 0.008 | [15] -0.012 | [16] 0.04 | [17] -0.055 | [18] 0.069 | [19] -0.041 | [20] -0.023

LRCH3 (UniProt Q96II8)
inactive: [1] -0.052 | [2] -0.016 | [3] -0.004 | [4] -0.017 | [5] 0.015 | [6] -0.015 | [7] -0.025 | [8] 0.047 | [9] 0.07 | [10] 0.034 | [11] -0.009 | [12] -0.01 | [13] 0.03 | [14] -0.051 | [15] -0.058 | [16] -0.022 | [17] 0.022 | [18] -0.031 | [19] 0.004 | [20] -0.047

LMNB1 (UniProt P20700)
inactive: [1] 0.031 | [2] -0.008 | [3] -0.016 | [4] 0.026 | [5] -0.006 | [6] 0.005 | [7] -0.019 | [8] 0.007 | [9] -0.038 | [10] -0.013 | [11] -0.009 | [12] 0.031 | [13] 0.02 | [14] 0.012 | [15] 0 | [16] 0.006 | [17] -0.027 | [18] 0.006 | [19] -0.011 | [20] -0.031

Additional entries follow.

LRRC4B (UniProt Q9NT99)
inactive: [1] 0.032 | [2] 0.063 | [3] -0.015 | [4] -0.079 | [5] -0.017 | [6] 0.101 | [7] 0.098 | [8] 0.016 | [9] 0.077 | [10] 0.04 | [11] 0.041 | [12] -0.008 | [13] 0.034 | [14] 0.041 | [15] -0.074 | [16] -0.106 | [17] 0.126 | [18] -0.033 | [19] 0.07 | [20] 0.052

LRSAM1 (UniProt Q6UWE0)
inactive: [1] 0.048 | [2] -0.031 | [3] 0.02 | [4] -0.028 | [5] -0.01 | [6] 0.012 | [7] -0.01 | [8] 0.026 | [9] -0.01 | [10] -0.019 | [11] -0.005 | [12] -0.003 | [13] 0.04 | [14] 0.04 | [15] -0.006 | [16] 0.002 | [17] -0.046 | [18] 0.016 | [19] -0.047 | [20] 0.005

LDB1 (UniProt Q86U70)
inactive: [1] 0.013 | [2] 0.014 | [3] -0.012 | [4] 0.002 | [5] -0.002 | [6] 0.003 | [7] -0.047 | [8] -0.025 | [9] 0.02 | [10] 0.033 | [11] 0.015 | [12] 0.02 | [13] 0.03 | [14] 0.063 | [15] -0.021 | [16] -0.022 | [17] -0.049 | [18] 0.114 | [19] 0 | [20] -0.057
